# Experimental data reported in US20190201435.
# Molecular target: p62 endogenous (Homo sapiens) (UniProt Q13501)
# Test: binding assay
# Details: iCLIP, among top enriched, protein in cells
Sequence,binding result (some crosslink sites decreased upon DMOG),binding result
GGCUGGCUUUAGCUCAGCGGUUACUUCGACAGUUCUUUAAUUGAAACAAGCAACCUGUCUGGGUUGUUCGAGACCCGCGGGCGCUCUCCAGUCCUUUU [vtRNA1-1],binds,–
GGCUGGCUUUAGCUCAGCGGUUACUUCGAGUACAUUGUAACCACCUCUCUGGGUGGUUCGAGACCCGCGGGUGCUUUCCAGCUCUUUU [vtRNA1-2],–,binds
GGGUCGGAGUUAGCUCAAGCGGUUACCUCCUCAUGCCGGACUUUCUAUCUGUCCAUCUCUGUGCUGGGGUUCGAGACCCGCGGGUGCUUACUGACCCUUU [vtRNA2-1],–,binds

# Where cells or extracts were used, other partners may take part.
